Chains of the proteins cited; added tags and fusions are not shown. Lines headed by an entry give the natural chain unless they say otherwise; changes in a name come on top.
UniProt Q12888: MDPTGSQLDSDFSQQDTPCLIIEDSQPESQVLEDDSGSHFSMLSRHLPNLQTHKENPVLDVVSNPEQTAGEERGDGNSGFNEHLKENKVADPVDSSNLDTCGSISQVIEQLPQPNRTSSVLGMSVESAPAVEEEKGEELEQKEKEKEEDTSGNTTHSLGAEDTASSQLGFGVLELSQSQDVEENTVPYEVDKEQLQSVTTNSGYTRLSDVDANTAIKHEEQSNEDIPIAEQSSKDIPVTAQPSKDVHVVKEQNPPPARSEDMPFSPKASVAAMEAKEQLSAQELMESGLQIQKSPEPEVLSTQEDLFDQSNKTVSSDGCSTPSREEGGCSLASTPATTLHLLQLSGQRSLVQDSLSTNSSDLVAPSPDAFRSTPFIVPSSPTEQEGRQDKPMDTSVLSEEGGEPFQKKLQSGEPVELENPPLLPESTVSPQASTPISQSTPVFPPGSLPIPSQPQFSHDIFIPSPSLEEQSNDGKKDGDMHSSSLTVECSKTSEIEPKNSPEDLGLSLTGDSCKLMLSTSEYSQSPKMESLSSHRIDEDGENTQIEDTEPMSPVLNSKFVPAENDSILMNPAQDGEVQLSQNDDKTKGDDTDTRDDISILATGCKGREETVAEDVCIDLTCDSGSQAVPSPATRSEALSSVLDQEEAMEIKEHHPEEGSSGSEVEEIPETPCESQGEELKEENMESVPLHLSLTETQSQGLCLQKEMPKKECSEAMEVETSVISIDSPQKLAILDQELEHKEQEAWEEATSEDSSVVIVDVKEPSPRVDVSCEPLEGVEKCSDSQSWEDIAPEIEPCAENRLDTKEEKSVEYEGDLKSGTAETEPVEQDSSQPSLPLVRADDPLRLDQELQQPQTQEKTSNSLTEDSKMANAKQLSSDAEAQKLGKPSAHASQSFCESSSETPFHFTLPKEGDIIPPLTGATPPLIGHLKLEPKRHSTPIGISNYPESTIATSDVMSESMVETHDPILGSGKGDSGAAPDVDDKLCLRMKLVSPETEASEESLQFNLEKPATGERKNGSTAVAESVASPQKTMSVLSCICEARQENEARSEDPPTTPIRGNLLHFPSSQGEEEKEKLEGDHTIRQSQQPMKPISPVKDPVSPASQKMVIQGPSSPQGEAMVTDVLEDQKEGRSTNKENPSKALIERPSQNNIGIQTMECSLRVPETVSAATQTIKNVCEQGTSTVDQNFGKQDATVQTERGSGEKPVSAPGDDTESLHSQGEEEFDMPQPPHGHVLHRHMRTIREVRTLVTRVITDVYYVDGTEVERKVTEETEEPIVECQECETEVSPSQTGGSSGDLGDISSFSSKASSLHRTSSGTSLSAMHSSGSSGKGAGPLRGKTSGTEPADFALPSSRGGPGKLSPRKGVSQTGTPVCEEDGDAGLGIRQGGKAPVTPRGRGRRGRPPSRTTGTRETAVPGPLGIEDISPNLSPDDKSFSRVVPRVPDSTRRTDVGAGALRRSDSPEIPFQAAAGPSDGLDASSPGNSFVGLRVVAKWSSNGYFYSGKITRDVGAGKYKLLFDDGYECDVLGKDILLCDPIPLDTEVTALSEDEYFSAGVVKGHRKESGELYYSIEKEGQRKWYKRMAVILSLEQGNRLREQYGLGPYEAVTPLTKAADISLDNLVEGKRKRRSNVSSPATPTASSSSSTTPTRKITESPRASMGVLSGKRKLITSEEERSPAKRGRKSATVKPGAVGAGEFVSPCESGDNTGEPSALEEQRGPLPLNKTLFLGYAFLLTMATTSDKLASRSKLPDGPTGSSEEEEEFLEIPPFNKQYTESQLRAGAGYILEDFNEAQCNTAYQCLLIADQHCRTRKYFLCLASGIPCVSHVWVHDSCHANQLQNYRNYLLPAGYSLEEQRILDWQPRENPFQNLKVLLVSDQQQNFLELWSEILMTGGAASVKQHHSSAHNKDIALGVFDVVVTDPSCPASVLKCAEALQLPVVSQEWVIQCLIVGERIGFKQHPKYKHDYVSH

In publication PMC12815461 (2026):

Molecular target: FLAG-53BP1 ΔMFF (human) (UniProt Q12888)
Assay: co-IP; FLAG-53BP1 WT, ΔMFF or IEDI_AAAA transfected into HEK293T, MLN4924 for 3 hr; 53BP1 immunoprecipitated (FLAG) and immunoblotted

B1: GMCL1, endogenous in HEK293T (as part of CRL3^GMCL1) (protein, UniProt Q96IK5 1-515)
chain: MGSLSSRVLRQPRPALAQQAQGARAGGSARRPDTGDDAAGHGFCYCAGSHKRKRSSGSFCYCHPDSETDEDEEEGDEQQRLLNTPRRKKLKSTSKYIYQTLFLNGENSDIKICALGEEWSLHKIYLCQSGYFSSMFSGSWKESSMNIIELEIPDQNIDVEALQVAFGSLYRDDVLIKPSRVVAILAAACLLQLDGLIQQCGETMKETVNVKTVCGYYTSAGTYGLDSVKKKCLEWLLNNLMTHQNVELFKELSINVMKQLIGSSNLFVMQVEMDIYTALKKWMFLQLVPSWNGSLKQLLTETDVWFSKQRKDFEGMAFLETEQGKPFVSVFRHLRLQYIISDLASARIIEQDAVVPSEWLSSVYKQQWFAMLRAEQDSEVGPQEINKEELEGNSMRCGRKLAKDGEYCWRWTGFNFGFDLLVTYTNRYIIFKRNTLNQPCSGSVSLQPRRSIAFRLRLASFDSSGKLICSRTTGYQILTLEKDQEQVVMNLDSRLLIFPLYICCNFLYISPEKKN
binding: no binding

These are yes or no findings as the source states them, for the method shown. In cells and extracts the contact can be indirect.
